Values from PubChem BioAssay AID1671195 (Yale University, 2021)
Here is an unselected part of about 22,000 reagents. In the full data, about 1,510 (6.9%) were called active. 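Active includes knockdowns raising or lowering LDL uptake; positive z-scores mean more uptake, negative mean less.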 Reagent sequences are not shown.

- Screen: 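Genes whose knockdown alters LDL uptake in liver cancer cells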 (primary screen)
- System: human Huh7 hepatoma cells
- Reagents: siRNA pool against human genes, 18 nM
- Duration: about 2 to 2.5 days of knockdown, then 8 h LDL uptake
- Conditions: DiI-labelled LDL at 30 µg/ml for 8 h, in lipoprotein-deficient serum medium
- Detection: 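Per-cell DiI-LDL intensity by automated imaging; well means scaled to the plate median and given as a robust z-score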
- Direction: robust z-score: higher = more LDL uptake after knockdown
- Hit rule: 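Active when two or more replicates show a robust z-score above 2 or below -2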

Gene | PubChem SID | robust z-score, replicate 1 | robust z-score, replicate 2 | robust z-score, replicate 3 | Outcome
PDZK1IP1 | SID442897708 | -0.131 | -0.742 | -0.374 | inactive
TMC2 | SID442894939 | -0.507 | -0.23 | 0.388 | inactive
FGF19 | SID442888805 | 1.33 | 0.62 | 0.0212 | inactive
WDR36 | SID442900531 | -0.705 | -0.79 | -0.822 | inactive
LTBP2 | SID442904222 | -1.17 | -1.66 | -1.77 | inactive
DNTT | SID442894530 | -0.059 | -0.0895 | -0.0682 | inactive
SNAPC4 | SID442894014 | -0.0236 | 0.0377 | -0.0623 | inactive
OBI1 | SID442898384 | -0.77 | -0.518 | -0.189 | inactive
KIF23 | SID442902936 | -1.29 | -0.799 | -1.45 | inactive
LOC441464 (retired record) | SID442893788 | 0.0902 | -0.0958 | 0.0364 | inactive
OAT | SID442885683 | 0.603 | 2.48 | 1.14 | inactive
MESD | SID442887321 | 1.34 | 0.575 | 0.901 | inactive
LOC389242 (retired record) | SID442903706 | -1.11 | -1.53 | -1.45 | inactive
CSN3 | SID442885476 | 1.45 | 1.73 | 1.31 | inactive
ST14 | SID442903801 | -1.73 | -0.746 | -1.71 | inactive
LOC127150 (retired record) | SID442896149 | -0.238 | -0.34 | -0.151 | inactive
PEBP4 | SID442897901 | -0.26 | -0.516 | -0.536 | inactive
LOC399707 (retired record) | SID442891926 | 0.141 | 0.544 | 0.00258 | inactive
PLEKHG4B | SID442904732 | -2.08 | -1.8 | -1.66 | inactive
ARHGAP20 | SID442897270 | -0.977 | -0.963 | 0.839 | inactive
TRAF4 | SID442901120 | -0.514 | -1.21 | -0.836 | inactive
LRRC63 | SID442884914 | 1.92 | 1.7 | 1.73 | inactive
EEF1AKMT2 | SID442894196 | -0.243 | 0.0783 | 0.0544 | inactive
SERINC2 | SID442892341 | -0.301 | 0.395 | 0.442 | inactive
THAP5 | SID442887798 | 0.517 | 1.72 | 0.279 | inactive
CBLC | SID442898797 | 0.371 | -0.903 | -1.08 | inactive
LOC728148 | SID442903267 | -0.837 | -1.59 | -1.35 | inactive
KLF13 | SID442898823 | -0.633 | -0.698 | -0.296 | inactive
CD300LF | SID442893186 | 0.572 | -0.622 | 0.287 | inactive
USP40 | SID442896210 | -0.0703 | -0.73 | 0.0538 | inactive
RNASE1 | SID442893075 | -0.0926 | 0.157 | 0.208 | inactive
RNF126 | SID442888214 | 0.889 | 1.38 | 0.0225 | inactive
CHMP7 | SID442898519 | 0.00546 | -0.931 | -0.599 | inactive
GPX6 | SID442903757 | -1.42 | -1.23 | -1.5 | inactive
LINC01721 | SID442892850 | 0.362 | 0.0295 | -0.0399 | inactive
LOC401324 | SID442890749 | 0.49 | 0.383 | 0.247 | inactive
PSG10P | SID442903933 | -1.23 | -1.63 | -1.44 | inactive
TUBB4B | SID442896922 | -0.174 | -0.58 | -0.227 | inactive
SDK2 | SID442884775 | -1.79 | -1.6 | -3.25 | inactive
ANKAR | SID442884216 | 1.95 | 2.2 | 0.722 | active
PIERCE1 | SID442896458 | -0.228 | -0.598 | -0.00154 | inactive
RAD51D | SID442900283 | -0.491 | -1.21 | -0.525 | inactive
BMP2K | SID442893351 | -0.052 | 0.235 | -0.000363 | inactive
CRYBA2 | SID442898710 | -0.269 | 0.211 | -1.53 | inactive
DRG2 | SID442903943 | -1.5 | -1.51 | -1.31 | inactive
KDM2A | SID442901274 | -1.53 | 0.562 | -1.66 | inactive
MUC21 | SID442885905 | 1.44 | 1.29 | 1.25 | inactive
ARMCX2 | SID442884016 | 2.24 | 1.93 | 2.02 | active
HRH4 | SID442891900 | 0.886 | -0.178 | -0.0118 | inactive
OTUD7A | SID442884507 | -2.42 | -2.26 | -2.09 | active
SLCO6A1 | SID442898525 | -0.342 | -0.678 | -0.507 | inactive
KCTD4 | SID442904277 | -1.68 | -1.55 | -1.45 | inactive
LOC400920 (retired record) | SID442897114 | -0.507 | -0.198 | -0.342 | inactive
ZNF432 | SID442903122 | -1.12 | -1.27 | -1.28 | inactive
RHOXF1 | SID442895806 | 0.339 | -0.608 | -0.355 | inactive
NPFFR1 | SID442903578 | -1.35 | -1.28 | -1.36 | inactive
SCOC | SID442883802 | 1.99 | 2.31 | 2.62 | active
STAT6 | SID442883801 | 2.44 | 2.01 | 2.48 | active
ZNF185 | SID442903961 | -0.588 | -2.31 | -1.44 | inactive
FICD | SID442896529 | 0.0968 | -0.182 | -0.764 | inactive
NOL3 | SID442886342 | 1.68 | 1.22 | 0.658 | inactive
GOLGA2P9 | SID442903330 | -1.15 | -1.17 | -1.5 | inactive
KIF21A | SID442901570 | -1.21 | -0.213 | -1.34 | inactive
THBS2 | SID442897816 | -0.664 | -0.731 | 0.108 | inactive
ARHGAP44 | SID442884627 | 1.6 | 1.81 | 3.02 | inactive
TGS1 | SID442901036 | -0.921 | -1 | -0.605 | inactive
GON4L | SID442903824 | -0.567 | -1.54 | -2.09 | inactive
ABCC12 | SID442884931 | 1.74 | 2.37 | 1.21 | inactive

A few values from above:
Entry for GOLGA2P9 [SID442903330] under “robust z-score, replicate 2”: -1.17
DRG2 [SID442903943], Outcome: inactive
For “robust z-score, replicate 3”, GON4L [SID442903824] has -2.09
HRH4 [SID442891900], Outcome = inactive
Value for LOC127150 (retired record) [SID442896149] under “Outcome”: inactive
For “Outcome”, MESD [SID442887321] has inactive
